Assay [1] deals with 6×His sortilin 10CC domain+TMD (human) (UniProt Q99523). The assay is described as follows: non-reducing western blot, HEK293 cells.
Assay [2] concerns the target His-wild type sortilin (adenovirus, HCASMCs) (Homo sapiens (Human)) (UniProt Q99523). The assay is described as follows: non-reducing western blot of HCASMC-derived EVs. In general terms: In western blotting, separated proteins are transferred to a membrane and probed.
For assay [3] the target is unchanged. The assay is described as follows: non-reducing western blot, HCASMCs and their EVs.
Assay [4] shares this target. The assay is described as follows: non-reducing western blot of input and His-tag pulldown, HCASMCs.
Assay [5] has the same target. Kind of assay: non-reducing western blot of input and His-tag pulldown, HCASMC lysates.
Assay [6] concerns the target FLAG-sortilin without propeptide (human) (UniProt Q99523). The assay is described as follows: non-reducing western blot, HEK293 cells.
Assay [7] deals with FLAG-sortilin ECD+TMD (human) (UniProt Q99523). Kind of assay: co-immunoprecipitation with anti-FLAG M2, HEK293 cells.

The chains behind the UniProt entries cited, without tags or fusion partners. Where a name states a change or a piece, a line headed by the entry shows the natural chain unless it says otherwise.
UniProt Q99523: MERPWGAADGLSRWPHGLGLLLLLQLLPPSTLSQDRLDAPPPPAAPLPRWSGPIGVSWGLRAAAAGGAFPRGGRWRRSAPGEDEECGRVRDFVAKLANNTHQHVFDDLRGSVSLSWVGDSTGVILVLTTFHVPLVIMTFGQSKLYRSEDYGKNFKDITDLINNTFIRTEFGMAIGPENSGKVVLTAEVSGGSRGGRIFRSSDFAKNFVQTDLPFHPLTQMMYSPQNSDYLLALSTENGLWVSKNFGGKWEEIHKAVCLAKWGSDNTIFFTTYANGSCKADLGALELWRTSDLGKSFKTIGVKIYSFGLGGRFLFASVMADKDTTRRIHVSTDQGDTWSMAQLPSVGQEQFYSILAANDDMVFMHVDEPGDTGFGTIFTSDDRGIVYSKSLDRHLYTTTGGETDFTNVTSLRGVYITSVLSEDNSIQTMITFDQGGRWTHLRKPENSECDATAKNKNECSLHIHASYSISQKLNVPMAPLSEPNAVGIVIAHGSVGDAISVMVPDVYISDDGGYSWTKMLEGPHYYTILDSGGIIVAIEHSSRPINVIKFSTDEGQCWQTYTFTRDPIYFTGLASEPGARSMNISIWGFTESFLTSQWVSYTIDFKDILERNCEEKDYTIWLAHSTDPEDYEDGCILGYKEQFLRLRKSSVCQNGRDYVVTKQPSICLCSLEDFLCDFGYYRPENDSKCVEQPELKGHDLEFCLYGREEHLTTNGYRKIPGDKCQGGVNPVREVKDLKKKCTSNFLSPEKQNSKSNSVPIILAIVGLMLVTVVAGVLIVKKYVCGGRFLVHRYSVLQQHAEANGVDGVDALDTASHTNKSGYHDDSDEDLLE

No constants are given. Whether binding was seen depends on the method and setting. For some of these results: In cells and extracts the contact can be indirect. Some binding calls cover weakened binding; strength is not graded here.

For “6×His sortilin 10CC domain+TMD (from UniProt Q99523 605-778) (receptor)”, in assay [1], the binding entry was “binds”. In the case of “Flag-S316E mutant sortilin (adenovirus, HCASMCs) (from UniProt Q99523 78-831) (receptor)”, the binding entry in assay [2], in assay [3], in assay [4] and in assay [5] was “binds” each time. With “FLAG-sortilin without propeptide (from UniProt Q99523 81-831) (receptor)”, the binding entry in assay [6] is given as “binds”. Take “6×His-sortilin full-length (Full) (from UniProt Q99523 81-831) (receptor)”: the binding entry in assay [7] is reported as “binds”.
